## Primary screen of a compound library

Sequences of proteins named here, by UniProt entry; tags and fusion partners are left off. Residues count along the entry.
UniProt P9WPC5, whole entry: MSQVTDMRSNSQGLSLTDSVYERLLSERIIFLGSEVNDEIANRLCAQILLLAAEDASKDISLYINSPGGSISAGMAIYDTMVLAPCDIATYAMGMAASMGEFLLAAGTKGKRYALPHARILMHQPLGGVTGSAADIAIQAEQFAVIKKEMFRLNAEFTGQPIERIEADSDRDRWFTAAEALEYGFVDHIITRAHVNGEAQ
UniProt P9WPC3, whole entry partner: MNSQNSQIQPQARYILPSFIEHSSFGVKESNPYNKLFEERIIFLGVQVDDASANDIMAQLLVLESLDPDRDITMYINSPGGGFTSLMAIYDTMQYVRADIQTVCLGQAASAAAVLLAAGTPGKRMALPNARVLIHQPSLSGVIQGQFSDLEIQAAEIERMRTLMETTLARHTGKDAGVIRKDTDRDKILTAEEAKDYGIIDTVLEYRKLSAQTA
UniProt I6X8D2, whole entry: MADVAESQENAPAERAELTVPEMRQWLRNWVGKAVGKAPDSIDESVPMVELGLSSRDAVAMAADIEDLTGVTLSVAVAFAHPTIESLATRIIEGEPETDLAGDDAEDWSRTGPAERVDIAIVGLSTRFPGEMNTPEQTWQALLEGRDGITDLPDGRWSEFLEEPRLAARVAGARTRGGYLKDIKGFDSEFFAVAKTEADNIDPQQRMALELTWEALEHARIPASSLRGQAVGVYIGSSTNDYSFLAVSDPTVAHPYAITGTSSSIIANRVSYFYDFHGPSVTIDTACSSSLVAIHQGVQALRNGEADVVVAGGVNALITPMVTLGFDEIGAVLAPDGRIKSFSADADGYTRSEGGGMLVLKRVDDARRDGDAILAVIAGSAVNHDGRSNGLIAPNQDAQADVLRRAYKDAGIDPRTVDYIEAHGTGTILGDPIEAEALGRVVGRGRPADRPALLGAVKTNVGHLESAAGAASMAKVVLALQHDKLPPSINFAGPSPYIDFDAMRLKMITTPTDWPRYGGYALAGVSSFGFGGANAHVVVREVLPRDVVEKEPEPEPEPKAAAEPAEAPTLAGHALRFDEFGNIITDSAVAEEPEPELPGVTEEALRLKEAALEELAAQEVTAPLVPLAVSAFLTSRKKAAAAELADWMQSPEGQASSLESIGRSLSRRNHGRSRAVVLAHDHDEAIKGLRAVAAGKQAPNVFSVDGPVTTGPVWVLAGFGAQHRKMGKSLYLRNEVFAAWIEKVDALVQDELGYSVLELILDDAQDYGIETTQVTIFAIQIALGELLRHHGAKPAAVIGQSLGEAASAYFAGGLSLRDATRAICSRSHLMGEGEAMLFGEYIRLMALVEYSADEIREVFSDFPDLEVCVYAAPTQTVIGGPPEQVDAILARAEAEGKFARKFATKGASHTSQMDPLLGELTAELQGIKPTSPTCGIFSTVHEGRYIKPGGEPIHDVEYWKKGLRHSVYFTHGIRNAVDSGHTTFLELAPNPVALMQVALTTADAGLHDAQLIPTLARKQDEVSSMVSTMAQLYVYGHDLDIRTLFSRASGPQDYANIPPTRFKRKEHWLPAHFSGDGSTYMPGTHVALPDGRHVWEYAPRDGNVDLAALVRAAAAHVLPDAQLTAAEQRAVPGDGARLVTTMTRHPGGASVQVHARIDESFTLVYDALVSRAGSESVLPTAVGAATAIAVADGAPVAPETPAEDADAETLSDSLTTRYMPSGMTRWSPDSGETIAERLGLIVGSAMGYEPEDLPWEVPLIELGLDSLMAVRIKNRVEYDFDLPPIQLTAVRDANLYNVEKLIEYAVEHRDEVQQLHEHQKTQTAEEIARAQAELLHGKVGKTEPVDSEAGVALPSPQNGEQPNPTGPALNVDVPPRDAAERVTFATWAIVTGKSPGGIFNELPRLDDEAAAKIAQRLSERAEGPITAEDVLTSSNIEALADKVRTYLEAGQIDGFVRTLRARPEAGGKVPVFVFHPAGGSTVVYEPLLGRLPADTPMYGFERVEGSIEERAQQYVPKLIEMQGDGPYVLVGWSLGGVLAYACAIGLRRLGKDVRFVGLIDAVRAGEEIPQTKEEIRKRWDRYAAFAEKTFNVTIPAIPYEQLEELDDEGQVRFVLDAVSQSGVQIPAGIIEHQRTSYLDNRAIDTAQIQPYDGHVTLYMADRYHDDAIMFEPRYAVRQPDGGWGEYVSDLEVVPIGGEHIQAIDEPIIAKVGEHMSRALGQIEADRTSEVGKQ
UniProt P9WNZ1, whole entry: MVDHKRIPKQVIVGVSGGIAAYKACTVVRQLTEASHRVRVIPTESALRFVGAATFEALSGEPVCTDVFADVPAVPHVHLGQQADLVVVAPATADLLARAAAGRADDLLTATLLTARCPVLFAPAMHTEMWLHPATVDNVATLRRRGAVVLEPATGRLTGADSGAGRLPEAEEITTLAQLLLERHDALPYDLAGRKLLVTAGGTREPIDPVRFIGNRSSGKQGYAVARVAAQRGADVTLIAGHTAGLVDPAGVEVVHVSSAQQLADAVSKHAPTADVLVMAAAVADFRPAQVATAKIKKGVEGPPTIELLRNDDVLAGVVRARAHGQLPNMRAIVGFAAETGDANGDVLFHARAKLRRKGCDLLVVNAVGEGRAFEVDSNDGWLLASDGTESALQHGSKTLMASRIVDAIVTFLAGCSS
UniProt A4I591, 1-473: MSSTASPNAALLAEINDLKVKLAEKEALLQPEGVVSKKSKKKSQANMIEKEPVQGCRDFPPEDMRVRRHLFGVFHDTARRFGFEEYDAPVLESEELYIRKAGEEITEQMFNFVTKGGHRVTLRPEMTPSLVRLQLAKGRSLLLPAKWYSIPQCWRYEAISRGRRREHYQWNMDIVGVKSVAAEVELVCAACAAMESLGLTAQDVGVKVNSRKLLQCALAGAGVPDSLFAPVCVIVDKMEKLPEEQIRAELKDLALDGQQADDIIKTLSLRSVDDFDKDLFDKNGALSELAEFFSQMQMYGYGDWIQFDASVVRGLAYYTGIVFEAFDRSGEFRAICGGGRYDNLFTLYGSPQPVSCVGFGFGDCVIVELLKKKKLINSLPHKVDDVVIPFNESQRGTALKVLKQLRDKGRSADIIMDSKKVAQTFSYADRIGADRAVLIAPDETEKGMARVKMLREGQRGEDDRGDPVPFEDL
UniProt Q4DA54, 1-478: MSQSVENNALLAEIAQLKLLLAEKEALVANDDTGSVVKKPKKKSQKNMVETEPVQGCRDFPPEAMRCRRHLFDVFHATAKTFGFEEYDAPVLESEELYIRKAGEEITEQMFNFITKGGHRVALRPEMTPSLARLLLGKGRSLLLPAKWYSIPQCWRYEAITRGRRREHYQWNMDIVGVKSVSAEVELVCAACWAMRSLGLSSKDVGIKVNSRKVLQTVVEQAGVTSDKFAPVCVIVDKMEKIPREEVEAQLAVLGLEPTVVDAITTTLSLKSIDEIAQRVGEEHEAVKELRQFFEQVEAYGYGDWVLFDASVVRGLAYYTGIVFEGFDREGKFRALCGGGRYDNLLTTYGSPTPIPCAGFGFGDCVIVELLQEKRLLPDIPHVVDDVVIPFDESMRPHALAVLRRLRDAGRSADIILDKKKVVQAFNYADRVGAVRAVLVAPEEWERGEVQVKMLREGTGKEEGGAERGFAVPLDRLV

ClpP1P2: 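Protease assay of ClpP1P2, read by the AMC dye that it sets free. Target: ClpP1P2, Mycobacterium tuberculosis (UniProt P9WPC5 and UniProt P9WPC3). Concentration: 50 µM. Direction is inferred from only a few compounds that gave an IC50; most scored high, so higher reads as stronger inhibition. Most other retested compounds had strongly negative values. Size under these conditions: about 69,000 compounds, about 10 of them at 50% or above in at least one test.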
Pks13 thioesterase: 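Enzyme assay of the thioesterase domain of polyketide synthase 13; the read-out is not stated. Target: Polyketide synthase Pks13, Mycobacterium tuberculosis (UniProt I6X8D2). Concentration: 30 µM. Higher reads as stronger inhibition (inferred from which compounds were picked for retests). About 67,000 compounds were tested under these conditions; 0.46% (about 300) showed 50% or more at least once.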
CoaBC: 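Enzyme assay of CoaBC with a phosphate dye (Biomol Green) read at 650 nm. Target: Coenzyme A biosynthesis protein CoaBC, Mycobacterium tuberculosis (UniProt P9WNZ1). Concentration: 30 µM. Direction is inferred from only a few compounds that gave an IC50; most scored high, so higher reads as stronger inhibition. Most strong results did not repeat in a second test. About 67,000 compounds were tested under these conditions; 0.06% (about 40) showed 50% or more at least once.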
LiHisRS: 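Enzyme assay of histidyl-tRNA synthetase; the read-out is not stated. Target: Histidine-tRNA ligase, Leishmania infantum (UniProt A4I591). Concentration: 30 µM. The record gives no direction; compounds that gave an IC50 in retests scored well above the rest, so higher reads as stronger inhibition. The assay is labelled LdHisRS but filed under L. infantum. Of about 69,000 compounds tested this way, about 410 (0.6%) reached 50% or more in at least one test.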
TcHisRS: 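Enzyme assay of histidyl-tRNA synthetase; the read-out is not stated. Target: Histidine-tRNA ligase, Trypanosoma cruzi CL Brener (UniProt Q4DA54). Compounds at 30 µM. Higher reads as stronger inhibition (inferred: compounds with an IC50 in retests scored well above the rest). Of about 69,000 compounds tested this way, about 31 (0.045%) reached 50% or more in at least one test.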

The filed quantity is “Percent Effect” (%).
The controls that fix the scale are not given in the record; negative values are as filed.
This is an unselected part of the compounds tested.
A dash means the value is not listed here; it may have been measured.

SMILES	ClpP1P2	Pks13 thioesterase	CoaBC	LiHisRS	TcHisRS
COc1ccc(C(N)=O)cc1NCc1nc(-c2cccs2)oc1C	-7.793%	9.082%	-1.152%	22.22%	6.748%
CN(C)CCNCC1CCOC(C)(C)C1 (centres unmarked)	11.36%	-7.201%	-0.1318%	8.219%	8%
CCN(C)CC1CCN(c2ncc(Br)cn2)C1 (centres unmarked)	-3.905%	-24.01%	-2.848%	9.091%	5.419%
COc1cccc(CCNC(=O)CCS(=O)(=O)C2CCCC2)c1	5.684%	-26.55%	13.91%	17.74%	0.6494%
Cc1cc(F)ccc1N1CCC(N2C[C@@H](C)[C@@](C)(O)C2)CC1	-22.21%	0%	-0.2457%	13.49%	8.235%
COCC(=O)N1CCC(c2cccc(Cc3ccc(F)cc3)n2)CC1	2.499%	-36.32%	1.667%	16.67%	7.027%
COc1ncccc1CN1CCn2c(Cn3cncn3)cnc2C1	16.1%	-12.23%	-2.332%	5.109%	-0.5464%
Cc1cccc(NC(=O)c2sc(C)nc2C)n1	-12.39%	6.917%	3.008%	-8.989%	4.523%
COc1cccn(CC(=O)N2CCCC3(CCCO3)CC2)c1=O (centres unmarked)	-15.44%	5.779%	2.3%	101.1%	71.29%
CCCn1ccnc1CN1CCc2[nH]cnc2C1Cc1ccccc1 (centres unmarked)	-10.66%	-51.26%	-25.21%	8%	2.717%
Cn1c(CN2CCCC2)nnc1C1CCCN(C(=O)C2CCOCC2)C1 (centres unmarked)	-10.52%	-20.89%	2.345%	15.38%	-1.667%
Cc1ccc(C)c(NC(=O)c2cc(S(=O)(=O)N3CCSCC3)c[nH]2)c1	4.893%	-11.91%	7.851%	24.11%	10%
CN(Cc1nccn1CC(F)(F)F)C(=O)c1ccc(F)cc1F	-4.077%	-41.88%	1.215%	20%	5.435%
CCn1cc(NC(=O)CCc2ccc3c(c2)OCCCO3)cn1	-5.391%	-8.808%	0.7905%	28.12%	4.943%
CC(=O)N1CCN(c2ccc3ccc(C(=O)NC4CCCC4)cn23)CC1	11.04%	11.31%	-0.7255%	46.34%	59.4%
Cc1ncsc1CN1CCO[C@H]2[C@H](Oc3ccccn3)CC[C@@H]21	-4.151%	-28.07%	4.235%	22.86%	6.863%
CCOC(C)C(=O)N1CCCN(Cc2csc(CC)n2)CC1 (centres unmarked)	-7.133%	-28.6%	7.5%	16.07%	7.493%
CNc1ccc(C)cc1C(=O)N[C@H]1C[C@H]2CN(C)CCN2C1	-32.52%	-0.02251%	5.455%	16.44%	11.35%
O=C(CCc1ccsc1)N1CCC(C(=O)O)(c2ccccc2)CC1	-3.398%	-35.77%	6.21%	10.34%	1.571%
COC(=O)[C@@H]1C[C@H](NC(=O)Cn2c(=O)cc(C)c3ccccc32)CN1C	-3.599%	-5.51%	-	15.83%	-1.316%
COc1cccc2c1ccn2CCC(=O)N1CCCC(C(=O)O)C1 (centres unmarked)	5.335%	-15.34%	1.484%	2.857%	1.087%
CC(C)c1nccc(CN2CCCC(O)(CN(C)C)CC2)n1 (centres unmarked)	0.9144%	-18.37%	-20.13%	14.75%	2.4%
Cc1cccnc1CN1CCCCC1c1ccn2ccnc2n1 (centres unmarked)	-23.97%	8.331%	4.854%	15.94%	9.89%
O=C(N[C@@H]1CN(Cc2c[nH]nc2-c2ccccc2)C[C@H]1O)c1cc[nH]n1	-5.703%	-2.813%	-0.2392%	7.194%	7.28%
CN(C)C1CCN(C(=O)c2cccc(S(=O)(=O)NCC3(C)COC3)c2)C1 (centres unmarked)	10.58%	-6.895%	-2.236%	9.524%	-2.564%
CCN(Cc1ccc2c(c1)OCO2)C(=O)Cn1cccnc1=O	-33.98%	-13.84%	0%	5.172%	5.085%
COc1ccc(CN2C[C@@H]3OCCN(CC4CCCO4)[C@@H]3C2)cc1 (some centres unmarked)	2.521%	-25.44%	11.05%	12.03%	1.657%
CC(=O)Nc1nc(C2CCN(C(C)=O)CC2)cs1	-1.742%	-26.92%	5.959%	6.569%	1.639%
CNC(=O)NCC(=O)Nc1ccccc1N1CCc2ccccc21	1.16%	-25.55%	-2.801%	22.58%	10.12%
CC(=O)Nc1ccc(CNC(=O)CNCc2snnc2C)cc1	1.444%	-3.83%	0.1227%	-3.922%	-1.235%
CCn1nc(C)c(CNC(=O)c2nnc3ccc(OC)cc3n2)c1C	-0.9941%	-0.3051%	6.378%	18.52%	0.4464%
CCC(CC)c1cc(CNC(=O)N2CCCC(C(=O)NC)C2)on1 (centres unmarked)	-5.459%	2.344%	-3.433%	1.639%	1.163%
Cc1nc(C)n(CC2CCCN(Cc3cc(C#N)ccc3F)C2)n1 (centres unmarked)	-13.56%	-0.5344%	12.94%	14.29%	8.14%
N#Cc1nc(COc2ccc3c(c2)OCO3)oc1N1CCCC1	-13.95%	-7.836%	1.263%	5.263%	0.5848%
COCC1CN(C(=O)Cc2ccc(F)cc2)Cc2ccnn2C1 (centres unmarked)	14.31%	-23.43%	2.792%	20.59%	5.911%
CN1CC[C@@H]2[C@@H](CO[C@H]2CNC(=O)c2nccn2C)C1	1.993%	1.729%	0.9852%	16%	2.062%
CCS(=O)(=O)N1CCOC2(COCCN(C(C)=O)C2)C1 (centres unmarked)	5.28%	24.92%	-	-1.724%	2.532%
CC(C)N1CCN(C(=O)Nc2cnn(CC(N)=O)c2)CC1	10.9%	-14.34%	-3.109%	6.383%	-3.817%
Cn1cc(N2CCC(Nc3ccc4nccnc4n3)C2=O)cn1 (centres unmarked)	4.183%	-19.88%	-6.452%	3.509%	0.8403%
COCCNC(=O)[C@H]1CN(Cc2scnc2C)C[C@H]2OCC[C@@H]12	2.073%	-18.98%	5.376%	13.33%	4.132%
CC(C)c1ccc(S(=O)(=O)N2CCCC3(CCCN3S(C)(=O)=O)C2)cc1 (centres unmarked)	26.02%	-2.036%	-1.481%	8.333%	1.869%

The first 3 entries again:

With COc1ccc(C(N)=O)cc1NCc1nc(-c2cccs2)oc1C the screen gave ClpP1P2: -7.793%; Pks13 thioesterase: 9.082%; CoaBC: -1.152%; LiHisRS: 22.22%; TcHisRS: 6.748%.
With CN(C)CCNCC1CCOC(C)(C)C1 (centres unmarked) the screen gave ClpP1P2: 11.36%; Pks13 thioesterase: -7.201%; CoaBC: -0.1318%; LiHisRS: 8.219%; TcHisRS: 8%.
With CCN(C)CC1CCN(c2ncc(Br)cn2)C1 (centres unmarked) the screen gave ClpP1P2: -3.905%; Pks13 thioesterase: -24.01%; CoaBC: -2.848%; LiHisRS: 9.091%; TcHisRS: 5.419%.

Data taken from ChEMBL document CHEMBL3988442, “University of Dundee, Small-Polar-MMV Screening Library” (2021).